These are yes or no findings as the source states them, for the method shown. Binding seen in cells or lysates may run through a third protein. Here binding means that the protein was enriched with, or labelled near, the bait; the list need not be complete. Where a sequence is shown, tags or fusion partners need not be part of it.
Molecular target: T1, Flag-tagged variant of mouse ATRAP (angiotensin II type-1 receptor-associated protein) (mouse) (UniProt Q9WVK0)
T1 sequence: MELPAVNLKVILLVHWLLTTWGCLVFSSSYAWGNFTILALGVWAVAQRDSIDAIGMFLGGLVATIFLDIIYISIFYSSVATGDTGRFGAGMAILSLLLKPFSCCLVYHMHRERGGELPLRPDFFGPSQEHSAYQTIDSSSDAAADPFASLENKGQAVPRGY
Assay: affinity purification with mass spectrometry; anti-DYKKKK (Flag) magnetic beads on lysate of Dox-induced HEK293_F-mATRAP cells (T-lysis buffer: 20 mM HEPES NaOH, 150 mM NaCl, 0.05% Tween-20, 2.5 mM MgCl2, 1 mM DTT), 2 h at 4 °C, Flag peptide elution, SDS-PAGE, LC-MS/MS; Dox- cells as control

By UniProt entry, the sequences of proteins in these tests, tags left out. Where a name states a change or a piece, a line headed by the entry shows the natural chain unless it says otherwise. Chains listed by the source or under a name are the forms on record and can include a tag or linker.
SERCA2a (P16615-2, form named): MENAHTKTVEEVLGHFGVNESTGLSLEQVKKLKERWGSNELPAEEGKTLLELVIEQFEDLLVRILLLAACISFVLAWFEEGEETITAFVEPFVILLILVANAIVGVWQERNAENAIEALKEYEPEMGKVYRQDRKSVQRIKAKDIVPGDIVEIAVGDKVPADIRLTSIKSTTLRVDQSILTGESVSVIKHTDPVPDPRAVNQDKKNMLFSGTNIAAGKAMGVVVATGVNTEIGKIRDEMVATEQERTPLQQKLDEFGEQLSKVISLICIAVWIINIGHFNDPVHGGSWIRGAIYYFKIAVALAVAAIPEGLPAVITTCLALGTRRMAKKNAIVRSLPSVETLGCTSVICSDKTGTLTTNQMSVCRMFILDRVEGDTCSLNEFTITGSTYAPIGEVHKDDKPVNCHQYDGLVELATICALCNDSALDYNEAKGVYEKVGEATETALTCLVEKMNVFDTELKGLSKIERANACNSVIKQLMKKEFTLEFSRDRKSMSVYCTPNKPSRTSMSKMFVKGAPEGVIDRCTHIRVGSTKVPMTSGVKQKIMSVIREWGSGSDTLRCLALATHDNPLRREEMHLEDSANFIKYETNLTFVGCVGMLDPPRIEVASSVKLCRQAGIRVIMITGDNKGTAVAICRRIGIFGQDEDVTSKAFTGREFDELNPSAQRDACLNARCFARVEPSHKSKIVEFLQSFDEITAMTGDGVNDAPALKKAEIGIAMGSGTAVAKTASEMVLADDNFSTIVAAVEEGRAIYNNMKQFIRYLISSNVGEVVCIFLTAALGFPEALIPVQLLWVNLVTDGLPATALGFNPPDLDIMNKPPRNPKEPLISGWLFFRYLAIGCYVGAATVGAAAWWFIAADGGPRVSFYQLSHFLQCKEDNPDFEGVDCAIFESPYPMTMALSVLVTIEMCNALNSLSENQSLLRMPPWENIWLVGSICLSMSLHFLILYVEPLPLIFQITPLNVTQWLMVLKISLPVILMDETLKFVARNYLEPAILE

- binding: binds
Substance: SERCA2a (from UniProt P16615-2 1-997)
